Earlier results, collected in patent publication US20040096356A1, “Assay device for determining analytes in a liquid dairy product” (priority 1997, published 2004).

System: protein isolated from an antibiotic-sensitive microorganism, such as Bacillus stearothermophilus
Conditions: milk; according to Example 1 of EP 593 112; cited from earlier work

SMILES: CC(=O)OCC1=C(C(=O)O)N2C(=O)[C@@H](NC(=O)CSc3ccncc3)[C@H]2SC1 [Cephapirin, cephapirin]
- concentration down to which the test detects the antibiotic: 5 ppb
